# Assay results reported in US20110287953A1, “METHOD FOR DISCOVERING POTENTIAL DRUGS” (priority 2010, published 2011).
# Legend:
# [1] = system: HCC cell lines, Mahlavu, PLC5, HepG2, and Huh7; assay: MTT cell viability test in HCC cell lines; details: 72 h, Table 3-1
# Procedure: (§1) The HCC cell lines, Mahlavu, PLC5, HepG2, and Huh7, were cultured in Dulbecco's Modified Eagle Medium (DMEM; Seromed, Berlin, Germany) supplemented with 10% heat-inactivated fetal bovine serum, 100 μg/ml streptomycin, 100 μg/ml penicillin, and 2 mM L-glutamine in a humidified atmosphere containing 5% CO2 at 37° C. […] The cells were exposed to different concentrations of the small molecules for 72 hours. Control cells were incubated in the absence of small molecules. Afterwards, the cells were incubated with medium containing MTT for 2 hours. […] For the clonogenic assay, Huh7 cells were seeded out in appropriate dilutions in a 6-well plate and treated with selected small molecules at various concentrations for 15 days. Colonies were fixed with glutaraldehyde (6.0% v/v), stained with crystal violet (0.5% w/v), and counted.
# HCC cell lines = assay: Drug efficacy label of top 10 CMap drugs (MTT or clonogenic); assay type: cell-based; details: Table 2-3; labels (1) and (4); gene set in which the drug ranked top 10;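 further: label 1 means effective by MTT or clonogenic assay and 4 means ineffective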
# Procedure: as §1
smiles,measurement,setting,value
CN1CCN(CCCN2c3ccccc3Sc3ccc(Cl)cc32)CC1 [prochlorperazine],IC50,[1],5 to 10 µM
Clc1ccc(CSC(Cn2ccnc2)c2ccc(Cl)cc2Cl)cc1 (stereo not drawn) [sulconazole],IC50,[1],5 to 10 µM
same,drug efficacy label,HCC cell lines,sulconazole (1)
